Data published in paper PMC6389991.
No constants are given. Whether binding was seen depends on the method and setting. Binding calls can cover weak binding; strength is not graded here.

How the values were obtained:
[1] = target: T1, malate dehydrogenase (MDH), denatured (UniProt P00346); test: cross-linking; glutaraldehyde; ~60 µg proteins in 50 mM sodium phosphate pH 8, 100 mM NaCl with or without ATP and MgCl2 (2 mM each), 37 °C; SDS-PAGE; MDH denatured at 48 °C; both purified
T1 sequence: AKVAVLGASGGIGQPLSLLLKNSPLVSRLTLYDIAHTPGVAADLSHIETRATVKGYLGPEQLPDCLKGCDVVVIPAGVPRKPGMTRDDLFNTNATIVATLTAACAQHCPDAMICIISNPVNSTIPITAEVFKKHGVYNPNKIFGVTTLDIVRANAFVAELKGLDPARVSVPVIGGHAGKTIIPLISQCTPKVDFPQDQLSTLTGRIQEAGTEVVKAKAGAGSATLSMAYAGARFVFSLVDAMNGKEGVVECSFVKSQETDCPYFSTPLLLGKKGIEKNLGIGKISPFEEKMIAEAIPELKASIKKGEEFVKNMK

[2] = target: PFA0660w-S (219–386) (P. falciparum); test: pull-down; 20 µg PFA0660w-S on Ni-NTA beads, saturated with 200 µg denatured MDH, then cholesterol 50-300 µM; bound fractions on SDS-PAGE; both purified

Question: With “PFA0660w-C (81–386) (P. falciparum) (domain or fragment)” as the molecule, how does the binding [1] read?
Answer: binds

B1: malate dehydrogenase (MDH), denatured (enzyme, UniProt P00346 25-338)
chain: T1 sequence
Question: For B1, which binding [2] is on record?
Answer: binds
